Laboratory results: patent US9597316B2, “Indole compounds for use in treating inflammation and cancer” (BIOVENTURES LLC, priority 2012, dated 2017)
Some of these results come from one statement about several compounds together.

test system: panel of 60 human tumor cell lines; experiment: single dose (10 μM) evaluation against panel of 60 human tumor cell lines; format: cell-based; settings: single dose of 10 μM; in more than eight of the 60 cancer cell lines

| SMILES | growth inhibition [%] |
| --- | --- |
| O=C1NC(=S)NC(=O)C1=Cc1cn(C(=O)c2cccc3ccccc23)c2ccccc12 [Compound 3t] | ≥ 60 |
| COc1ccc2c(c1)c(C=C1C(=O)NC(=S)NC1=O)cn2C(=O)c1ccccc1Br [Compound 3s] | ≥ 60 |
| COc1ccc2c(c1)c(C=C1C(=O)NC(=S)NC1=O)cn2C(=O)c1cccc2ccccc12 [Compound 3w] | ≥ 60 |
